Measured values as given in patent US20230416299A1, “COMPOUND AND METHOD FOR THE TREATMENT AND DIAGNOSIS OF NEURODEGENERATIVE CONDITIONS” (Swansea University, priority 2013, published 2023).

What was measured:
[1] = Cholestenoic acids in mouse brain by LC-ESI-MSn
[2] = Cholestenoic acids in mouse plasma by LC-ESI-MSn
[3] = WT mouse (Cyp7b1 colony), 13 months
[4] = WT mouse (Cyp7b1 colony), 23 months
[5] = WT mouse (Cyp27a1 colony), 3 months

Structure (SMILES)	Mean concentration in brain (ng/mg ± SD) ([1]; Cyp7b1−/− mouse, 23 months) [ng/mg]	Mean concentration in brain (ng/mg ± SD) ([1]; Cyp7b1−/− mouse, 13 months) [ng/mg]	Mean concentration in brain (ng/mg ± SD) [1, 3] [ng/mg]	Mean concentration in brain (ng/mg ± SD) [1, 4] [ng/mg]	Mean concentration in plasma (ng/mL ± SD) ([2]; Cyp7b1−/− mouse, 13 months) [ng/mL]	Mean concentration in plasma (ng/mL ± SD) ([2]; Cyp7b1−/− mouse, 23 months) [ng/mL]	Mean concentration in plasma (ng/mL ± SD) [2, 3] [ng/mL]	Mean concentration in plasma (ng/mL ± SD) [2, 4] [ng/mL]	Mean concentration in plasma (ng/mL ± SD) [2, 5] [ng/mL]	Mean concentration in plasma (ng/mL ± SD) ([2]; Cyp27a1−/− mouse, 3 months) [ng/mL]
C[C@H](CCCC(C)(C)O)[C@H]1CC[C@H]2[C@@H]3CC=C4C[C@@H](O)CC[C@]4(C)[C@H]3CC[C@]12C [25-HC, cholest-5-ene-3β,25-diol]	> 2									
CC(CCC[C@@H](C)[C@H]1CC[C@H]2[C@@H]3CC=C4C[C@@H](O)CC[C@]4(C)[C@H]3CC[C@]12C)C(=O)O (stereo partly drawn) [3β-HCA, 3β-hydroxycholest-5-en-26-oic acid]	0.15 ± 0.01	0.12 ± 0.02	0.01 ± 0.00	0.01 ± 0.00	7.32 ± 1.50	6.69 ± 2.64	1.97 ± 0.72	1.75 ± 0.50	3.56 ± 1.22	
CC(CCC[C@@H](C)[C@H]1CC[C@H]2[C@@H]3[C@H](O)CC4=CC(=O)CC[C@]4(C)[C@H]3CC[C@]12C)C(=O)O (stereo partly drawn) [7αH,3O-CA, 7α-hydroxy-3-oxocholest-4-en-26-oic acid]					14.21 ± 3.76	20.73 ± 1.77	25.89 ± 10.9	125.19 ± 9.44	28.96 ± 7.22	5.23 ± 1.07
